The source of these data is paper PMC3711425.

Chains of the proteins cited; added tags and fusions are not shown. Lines headed by an entry give the natural chain unless they say otherwise; changes in a name come on top. A line that says so, or that is headed by a name, gives the form on record, which may keep a tag or linker.
UniProt O95365: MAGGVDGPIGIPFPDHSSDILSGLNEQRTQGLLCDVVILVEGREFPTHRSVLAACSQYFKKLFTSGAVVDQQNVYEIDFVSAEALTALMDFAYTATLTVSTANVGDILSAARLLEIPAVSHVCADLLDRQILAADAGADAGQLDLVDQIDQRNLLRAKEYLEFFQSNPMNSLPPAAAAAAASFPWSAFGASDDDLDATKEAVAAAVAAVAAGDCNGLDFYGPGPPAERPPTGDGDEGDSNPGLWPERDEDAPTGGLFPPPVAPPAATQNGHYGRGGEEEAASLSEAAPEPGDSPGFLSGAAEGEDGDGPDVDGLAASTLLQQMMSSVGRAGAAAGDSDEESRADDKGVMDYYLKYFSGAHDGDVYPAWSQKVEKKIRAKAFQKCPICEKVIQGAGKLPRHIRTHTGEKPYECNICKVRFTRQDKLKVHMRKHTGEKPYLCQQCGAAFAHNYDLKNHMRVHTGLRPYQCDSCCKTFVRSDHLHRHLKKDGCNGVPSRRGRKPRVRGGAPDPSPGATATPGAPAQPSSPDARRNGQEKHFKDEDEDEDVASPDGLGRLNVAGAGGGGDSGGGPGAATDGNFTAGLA
UniProt Q6W2J9: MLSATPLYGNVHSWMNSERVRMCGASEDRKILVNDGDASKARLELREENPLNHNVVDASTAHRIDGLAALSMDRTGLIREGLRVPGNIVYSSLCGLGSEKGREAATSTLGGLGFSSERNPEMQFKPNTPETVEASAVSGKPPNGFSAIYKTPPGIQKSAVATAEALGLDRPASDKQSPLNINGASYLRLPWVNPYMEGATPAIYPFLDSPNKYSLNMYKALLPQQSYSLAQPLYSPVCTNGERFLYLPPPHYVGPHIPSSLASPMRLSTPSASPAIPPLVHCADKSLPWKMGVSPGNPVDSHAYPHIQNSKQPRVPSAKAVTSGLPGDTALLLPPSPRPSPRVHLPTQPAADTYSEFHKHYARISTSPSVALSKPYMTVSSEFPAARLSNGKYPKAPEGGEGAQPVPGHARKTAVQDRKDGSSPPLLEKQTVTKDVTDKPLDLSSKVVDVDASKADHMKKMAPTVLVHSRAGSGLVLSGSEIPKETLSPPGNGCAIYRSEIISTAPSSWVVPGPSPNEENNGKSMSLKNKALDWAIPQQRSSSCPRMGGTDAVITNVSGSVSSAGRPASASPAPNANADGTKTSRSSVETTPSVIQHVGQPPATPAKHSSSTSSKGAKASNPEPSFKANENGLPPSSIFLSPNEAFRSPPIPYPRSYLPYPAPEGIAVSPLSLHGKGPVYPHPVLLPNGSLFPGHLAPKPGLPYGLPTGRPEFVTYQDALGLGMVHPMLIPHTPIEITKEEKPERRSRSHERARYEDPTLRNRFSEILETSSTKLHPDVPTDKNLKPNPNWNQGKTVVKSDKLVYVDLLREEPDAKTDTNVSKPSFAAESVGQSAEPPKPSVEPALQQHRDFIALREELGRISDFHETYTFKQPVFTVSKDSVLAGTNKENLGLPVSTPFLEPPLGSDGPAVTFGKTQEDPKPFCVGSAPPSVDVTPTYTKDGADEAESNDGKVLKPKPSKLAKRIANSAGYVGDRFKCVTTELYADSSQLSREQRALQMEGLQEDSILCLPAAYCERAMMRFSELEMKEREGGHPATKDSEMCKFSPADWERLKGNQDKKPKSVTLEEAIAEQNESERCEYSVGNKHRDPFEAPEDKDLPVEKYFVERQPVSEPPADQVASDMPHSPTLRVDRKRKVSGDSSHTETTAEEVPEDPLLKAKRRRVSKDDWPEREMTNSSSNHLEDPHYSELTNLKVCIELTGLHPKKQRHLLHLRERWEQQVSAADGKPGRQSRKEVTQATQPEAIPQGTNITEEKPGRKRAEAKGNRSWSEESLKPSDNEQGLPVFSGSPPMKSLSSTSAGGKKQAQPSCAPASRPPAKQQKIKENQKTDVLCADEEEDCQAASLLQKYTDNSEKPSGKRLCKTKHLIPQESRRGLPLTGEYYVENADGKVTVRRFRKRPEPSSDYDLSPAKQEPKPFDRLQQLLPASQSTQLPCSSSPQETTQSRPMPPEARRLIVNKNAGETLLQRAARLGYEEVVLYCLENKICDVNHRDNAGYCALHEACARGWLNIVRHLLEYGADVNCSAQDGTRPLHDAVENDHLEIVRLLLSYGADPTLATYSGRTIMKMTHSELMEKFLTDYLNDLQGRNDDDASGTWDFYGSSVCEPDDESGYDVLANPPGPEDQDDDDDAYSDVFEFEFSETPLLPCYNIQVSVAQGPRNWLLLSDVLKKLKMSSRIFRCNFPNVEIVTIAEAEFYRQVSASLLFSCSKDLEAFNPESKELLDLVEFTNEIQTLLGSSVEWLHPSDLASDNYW
UniProt O95983: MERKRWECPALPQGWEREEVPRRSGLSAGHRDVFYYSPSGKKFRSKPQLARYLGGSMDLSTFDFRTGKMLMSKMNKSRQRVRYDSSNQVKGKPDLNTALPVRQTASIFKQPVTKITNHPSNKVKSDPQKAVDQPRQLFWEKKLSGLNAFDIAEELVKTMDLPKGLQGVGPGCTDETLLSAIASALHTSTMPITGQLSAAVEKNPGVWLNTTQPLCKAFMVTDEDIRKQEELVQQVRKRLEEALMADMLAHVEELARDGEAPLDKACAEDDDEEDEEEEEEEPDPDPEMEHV
MBD3 expressed from pcDNA3.1-MBD3 (O95983-2, form named): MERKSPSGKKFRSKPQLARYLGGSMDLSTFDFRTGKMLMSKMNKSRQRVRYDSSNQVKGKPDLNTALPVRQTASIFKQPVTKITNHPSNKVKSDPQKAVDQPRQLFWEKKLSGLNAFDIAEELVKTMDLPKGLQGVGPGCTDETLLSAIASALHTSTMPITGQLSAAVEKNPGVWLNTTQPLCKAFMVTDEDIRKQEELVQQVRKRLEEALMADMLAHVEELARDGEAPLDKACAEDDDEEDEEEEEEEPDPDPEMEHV
UniProt Q13547: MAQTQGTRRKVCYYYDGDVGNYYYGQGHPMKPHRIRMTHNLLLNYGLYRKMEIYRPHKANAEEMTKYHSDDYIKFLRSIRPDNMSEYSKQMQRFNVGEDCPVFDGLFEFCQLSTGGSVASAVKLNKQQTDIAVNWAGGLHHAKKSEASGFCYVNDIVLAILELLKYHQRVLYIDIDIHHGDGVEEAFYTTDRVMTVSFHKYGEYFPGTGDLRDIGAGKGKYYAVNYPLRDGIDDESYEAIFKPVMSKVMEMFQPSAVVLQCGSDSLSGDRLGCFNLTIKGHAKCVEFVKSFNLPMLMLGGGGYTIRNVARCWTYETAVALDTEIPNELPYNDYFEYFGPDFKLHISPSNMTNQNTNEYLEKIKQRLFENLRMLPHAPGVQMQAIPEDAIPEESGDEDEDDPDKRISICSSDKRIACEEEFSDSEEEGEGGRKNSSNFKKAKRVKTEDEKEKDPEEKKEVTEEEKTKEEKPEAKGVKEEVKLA

Assay [1] deals with Factor that binds to the inducer of short transcripts of human immunodeficiency virus-1 (FBI-1), FLAG-tagged (human) (UniProt O95365). Briefly: co-IP; HEK293 cells transfected with the expression vectors (Figure 5B); lysates (20 mM Tris-HCl pH 7.5, 150 mM NaCl, 10% glycerol, 1% Triton X-100) immunoprecipitated, western blot; precipitating antibody not given. Background: Immunoblotting shows a protein as a band on a membrane.

In assay [2] the target is BCL-6 corepressor (BCoR) from the BCoR expression vector (UniProt Q6W2J9). As to the kind of experiment: co-IP; HEK293 cells transfected with the BCoR expression vector; immunoprecipitated with an anti-BCoR antibody; western blot.
Assay [3] has as its target methyl-CpG-binding domain protein 3 (MBD3), endogenous (human (endogenous in HEK293)) (UniProt O95983). Briefly: co-IP; nuclear extracts of control and doxycycline-induced stable HEK293-TREx-FLAG-FBI-1 cells; anti-FLAG M2 agarose beads (IgG beads as control) or, in reverse, an antibody against MBD3; western blot.
In assay [4] the target is Factor that binds to the inducer of short transcripts of human immunodeficiency virus-1 (FBI-1), FLAG-tagged (human) (UniProt O95365). As to the kind of experiment: co-IP; HEK293 cells transfected with the FBI-1 and/or MBD3 expression vector; immunoprecipitated with an anti-FBI-1 antibody; western blot.
Assay [5] shares this target. Briefly: ChIP-reChIP; formaldehyde-fixed HEK293 chromatin; first ChIP with anti-FBI-1 or anti-MBD3 antibody, diluted 10 times, second ChIP with the other antibody; PCR of the proximal CDKN1A promoter; ectopic expression or knock-down of FBI-1 or MBD3.

No constants are given. Whether binding was seen depends on the method and setting. For some of these results: In cells and extracts the contact can be indirect. Some binding calls cover weakened binding; strength is not graded here.

In the case of “BCL-6 corepressor (BCoR) in the co-IP of Figure 5B (from UniProt Q6W2J9 1-1755)”, the binding result in assay [1] is on record as “binds”.
“FBI-1, endogenous (from UniProt O95365 1-584)”: the binding result in assay [2] was “binds”.
Turning to “Factor that binds to the inducer of short transcripts of human immunodeficiency virus-1 (FBI-1), FLAG-tagged (from UniProt O95365 1-584)”, the binding entry in assay [3] is “binds”.
With “HDAC1 (from UniProt Q13547 1-482) (enzyme)”, the binding entry in assay [2] is on record as “binds”.
In the case of “MBD3 expressed from pcDNA3.1-MBD3 (from UniProt O95983-2 1-259)”, the binding entry in assay [4], in assay [1] and in assay [5] was “binds” throughout.
